According to PubChem BioAssay AID504444 (National Center for Advancing Translational Sciences (NCATS), 2011):
The whole screen tested about 360,000 compounds, of which about 7,500 (2.1%) were called active. The inconclusive results got no clear call from the source; some entries with a clear call stand among them for comparison. The call rests on the fitted dose curve; in most records, active means well fitted inhibition curve with a large enough effect; inconclusive means small, poorly fitted or top-dose-only effect, or effect the other way; inactive means flat fitted curve, though single readings scatter. Where the call is inconclusive, the potency comes from a doubtful curve fit.

Experiment: Nrf2 qHTS screen for inhibitors; further: nearly all actives have a fitted effect of over 60% in size
Conditions: A549 ARE-Fluc reporter, luciferase luminescence, 18-24 h; series mostly up to 46 µM
Procedure, shortened: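 Two sequential reads on A549 ARE_Fluc cells exposed to compound for 18-24 h: a CellTiter-Fluor fluorescence read for viability, then a luciferase luminescence read for Nrf2/ARE activity.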
Potency means the concentration at half of the fitted maximal effect.

SMILES	Potency
O=C(O)CSc1nc2ccccc2o1	inconclusive: 6.51 µM [falling, partial curve, poor fit]
Cc1ccc(C)c(NC(=S)N2CCN(c3cccc(C(F)(F)F)c3)CC2)c1	inactive
COc1ccc(CC(=O)Nc2ccc(F)c(Cl)c2)cc1S(=O)(=O)N1CCOCC1	inconclusive: 16.4 µM [falling, partial curve, poor fit]
O=C(c1n[nH]c(=O)c2ccccc12)N1CCN(Cc2ccc3c(c2)OCO3)CC1	inconclusive: 23.1 µM [falling, partial curve, poor fit]
COc1ccc(/C=N/NC(=O)c2nc(-c3ccccc3)cc(-c3ccccc3)n2)cc1O	inconclusive: 18.4 µM [falling, single point]
Cc1c(C(=O)OCC(=O)NCCN2C(=O)CSC2=O)cccc1[N+](=O)[O-]	inconclusive: 29.1 µM [activator, partial curve, poor fit]
COc1cccc(C2c3c(ncn(-c4ccc(-c5ccccc5)cc4)c3=N)Oc3ccc4ccccc4c32)c1 (stereo not drawn)	inconclusive: 0.82 µM [activator, full curve, poor fit]
COc1ccc(S(=O)(=O)N2CCN(c3ccc4nnc(-c5ccc(F)cc5)n4n3)CC2)cc1	inconclusive: 20.6 µM [falling, single point]
Cn1c(NCc2ccccc2Cl)nc2ccccc21	inconclusive: 5.17 µM [activator, partial curve, poor fit]
Cc1ccc(-c2nc(NC(=O)CSc3nc(C)nc4sc5c(c34)CCCC5)ns2)cc1	inactive
COc1ccccc1OCC(=O)NCCSCc1ccccc1Cl	inactive
Cc1ccc(NC(=O)CCOc2ccccc2)cc1S(=O)(=O)Nc1ccccc1Cl	inconclusive: 23.1 µM [falling, single point]
O=c1cc(O)c2sc(Nc3ccc(Cl)c(F)c3)nc2[nH]1	inactive
Cc1ccc(OCc2cc(C(=O)NCC(C)(C)N3CCOCC3)no2)cc1C	inconclusive: 1.84 µM [activator, partial curve]
Cc1nc(C(=O)Nc2cc(F)cc(Cl)c2)sc1C1(C)CC(c2ccccc2)=NO1 (stereo not drawn)	inconclusive: 29.1 µM [falling, single point]
CC1CCN(S(=O)(=O)c2ccc3c(ccn3CCC(=O)NCc3ccccc3F)c2)CC1	inconclusive: 29.1 µM [falling, single point]
Cc1csc(/C(=N/OC(=O)c2ccco2)C(N)=O)n1	inactive
COc1ccc2c(c1)[C@H]1[C@H](CO2)[C@H](c2ccccc2)[C@]2(C)C(=O)Nc3cc(F)ccc3C(=O)N12	inconclusive: 5.8 µM [activator, single point]

Single values from the entries so far:
Under Potency, CC1CCN(S(=O)(=O)c2ccc3c(ccn3CCC(=O)NCc3ccccc3F)c2)CC1 shows inconclusive: 29.1 µM [falling, single point]
Under Potency, COc1ccc(CC(=O)Nc2ccc(F)c(Cl)c2)cc1S(=O)(=O)N1CCOCC1 shows inconclusive: 16.4 µM [falling, partial curve, poor fit]
